Strings that start with PEPTIDE1 are HELM notation: dots part the residues, brackets hold end groups and non-standard residues.
Experiment: general procedure: Fmoc solid-phase peptide synthesis; Fmoc-wang-resin
Details: whole synthesis, analytical RP-HPLC

Substance | final HPLC purity [%]
PEPTIDE1{[Mal(CH2)1CO].R.G.A.D.R.A.G.G.G.G.R.G.D}$$$$V2.0 | 97.94
PEPTIDE1{[Mal(CH2)2CO].R.G.A.D.R.A.G.G.G.G.R.G.D}$$$$V2.0 | 97.44
PEPTIDE1{[Mal(CH2)3CO].R.G.A.D.R.A.G.G.G.G.R.G.D}$$$$V2.0 | 97.77
PEPTIDE1{[Mal(CH2)4CO].R.G.A.D.R.A.G.G.G.G.R.G.D}$$$$V2.0 | 98.53
PEPTIDE1{[Mal(CH2)5CO].R.G.A.D.R.A.G.G.G.G.R.G.D}$$$$V2.0 | 98.62
PEPTIDE1{[Mal(CH2)6CO].R.G.A.D.R.A.G.G.G.G.R.G.D}$$$$V2.0 | 98.20
PEPTIDE1{[Mal(CH2)7CO].R.G.A.D.R.A.G.G.G.G.R.G.D}$$$$V2.0 | 97.57
PEPTIDE1{[Mal(CH2)8CO].R.G.A.D.R.A.G.G.G.G.R.G.D}$$$$V2.0 | 98.58
PEPTIDE1{[Mal(CH2)9CO].R.G.A.D.R.A.G.G.G.G.R.G.D}$$$$V2.0 | 98.60
PEPTIDE1{[Mal(CH2)10CO].R.G.A.D.R.A.G.G.G.G.R.G.D}$$$$V2.0 | 98.36
PEPTIDE1{[Mal(CH2)11CO].R.G.A.D.R.A.G.G.G.G.R.G.D}$$$$V2.0 | 98.19
PEPTIDE1{[Mal(CH2)12CO].R.G.A.D.R.A.G.G.G.G.R.G.D}$$$$V2.0 | 98.28
PEPTIDE1{[Mal-EO1-C1-CO].R.G.A.D.R.A.G.G.G.G.R.G.D}$$$$V2.0 | 97.46
PEPTIDE1{[Mal-EO1-C2-CO].R.G.A.D.R.A.G.G.G.G.R.G.D}$$$$V2.0 | 97.77
PEPTIDE1{[Mal-EO1-C3-CO].R.G.A.D.R.A.G.G.G.G.R.G.D}$$$$V2.0 | 98.27
PEPTIDE1{[Mal-EO1-C4-CO].R.G.A.D.R.A.G.G.G.G.R.G.D}$$$$V2.0 | 98.12
PEPTIDE1{[Mal-EO1-C5-CO].R.G.A.D.R.A.G.G.G.G.R.G.D}$$$$V2.0 | 98.70
PEPTIDE1{[Mal-EO1-C6-CO].R.G.A.D.R.A.G.G.G.G.R.G.D}$$$$V2.0 | 98.75
PEPTIDE1{[Mal-EO1-C7-CO].R.G.A.D.R.A.G.G.G.G.R.G.D}$$$$V2.0 | 98.28
PEPTIDE1{[Mal-EO2-C1-CO].R.G.A.D.R.A.G.G.G.G.R.G.D}$$$$V2.0 | 98.14
PEPTIDE1{[Mal-EO2-C2].R.G.A.D.R.A.G.G.G.G.R.G.D}$$$$V2.0 | 97.50
PEPTIDE1{[Mal-EO2-C3].R.G.A.D.R.A.G.G.G.G.R.G.D}$$$$V2.0 | 97.85
PEPTIDE1{[Mal-EO2-C4].R.G.A.D.R.A.G.G.G.G.R.G.D}$$$$V2.0 | 98.68
PEPTIDE1{[Mal-EO2-C5].R.G.A.D.R.A.G.G.G.G.R.G.D}$$$$V2.0 | 97.62

Substance | final HPLC purity [%]
PEPTIDE1{[Mal-EO2-C6].R.G.A.D.R.A.G.G.G.G.R.G.D}$$$$V2.0 | 98.32
PEPTIDE1{[Mal-EO2-C7].R.G.A.D.R.A.G.G.G.G.R.G.D}$$$$V2.0 | 98.65
PEPTIDE1{[Mal-EO3-C1].R.G.A.D.R.A.G.G.G.G.R.G.D}$$$$V2.0 | 97.71
PEPTIDE1{[Mal-EO3-C2].R.G.A.D.R.A.G.G.G.G.R.G.D}$$$$V2.0 | 98.19
PEPTIDE1{[Mal-EO3-C3].R.G.A.D.R.A.G.G.G.G.R.G.D}$$$$V2.0 | 98.75
PEPTIDE1{[Mal-EO3-C4].R.G.A.D.R.A.G.G.G.G.R.G.D}$$$$V2.0 | 97.89
PEPTIDE1{[Mal-EO3-C5].R.G.A.D.R.A.G.G.G.G.R.G.D}$$$$V2.0 | 98.61
PEPTIDE1{[Mal-EO3-C6].R.G.A.D.R.A.G.G.G.G.R.G.D}$$$$V2.0 | 97.69
PEPTIDE1{[Mal-EO3-C7].R.G.A.D.R.A.G.G.G.G.R.G.D}$$$$V2.0 | 98.37
PEPTIDE1{[Mal-EO4-C1].R.G.A.D.R.A.G.G.G.G.R.G.D}$$$$V2.0 | 98.15
PEPTIDE1{[Mal-EO4-C2].R.G.A.D.R.A.G.G.G.G.R.G.D}$$$$V2.0 | 98.49
PEPTIDE1{[Mal-EO4-C3].R.G.A.D.R.A.G.G.G.G.R.G.D}$$$$V2.0 | 97.97
PEPTIDE1{[Mal-EO4-C4].R.G.A.D.R.A.G.G.G.G.R.G.D}$$$$V2.0 | 97.60
PEPTIDE1{[Mal-EO4-C5].R.G.A.D.R.A.G.G.G.G.R.G.D}$$$$V2.0 | 98.32
PEPTIDE1{[Mal-EO4-C6].R.G.A.D.R.A.G.G.G.G.R.G.D}$$$$V2.0 | 97.57
PEPTIDE1{[Mal-EO4-C7].R.G.A.D.R.A.G.G.G.G.R.G.D}$$$$V2.0 | 97.54
PEPTIDE1{[Mal-pPh-C1-CO].R.G.A.D.R.A.G.G.G.G.R.G.D}$$$$V2.0 | 98.00
PEPTIDE1{[Mal-pPh-C2-CO].R.G.A.D.R.A.G.G.G.G.R.G.D}$$$$V2.0 | 97.50
PEPTIDE1{[Mal-pPh-C3-CO].R.G.A.D.R.A.G.G.G.G.R.G.D}$$$$V2.0 | 98.68
PEPTIDE1{[Mal-pPh-C4-CO].R.G.A.D.R.A.G.G.G.G.R.G.D}$$$$V2.0 | 98.34
PEPTIDE1{[Mal-pPh-C5-CO].R.G.A.D.R.A.G.G.G.G.R.G.D}$$$$V2.0 | 98.34
PEPTIDE1{[Mal-pPh-C6-CO].R.G.A.D.R.A.G.G.G.G.R.G.D}$$$$V2.0 | 97.48
PEPTIDE1{[Mal-pPh-C7-CO].R.G.A.D.R.A.G.G.G.G.R.G.D}$$$$V2.0 | 97.59
PEPTIDE1{[Mal-pPh-C8-CO].R.G.A.D.R.A.G.G.G.G.R.G.D}$$$$V2.0 | 97.70

Substance | final HPLC purity [%]
PEPTIDE1{[Mal-pPh-C9-CO].R.G.A.D.R.A.G.G.G.G.R.G.D}$$$$V2.0 | 98.11
PEPTIDE1{[Mal-pPh-C10-CO].R.G.A.D.R.A.G.G.G.G.R.G.D}$$$$V2.0 | 98.74
PEPTIDE1{[Mal-pPh-C11-CO].R.G.A.D.R.A.G.G.G.G.R.G.D}$$$$V2.0 | 98.43
PEPTIDE1{[Mal-pPh-C12-CO].R.G.A.D.R.A.G.G.G.G.R.G.D}$$$$V2.0 | 97.96
PEPTIDE1{[MalPEG5C1].R.G.A.D.R.A.G.G.G.G.R.G.D}$$$$V2.0 | 97.98
PEPTIDE1{[MalPEG5C2].R.G.A.D.R.A.G.G.G.G.R.G.D}$$$$V2.0 | 97.94
PEPTIDE1{[MalPEG5C3].R.G.A.D.R.A.G.G.G.G.R.G.D}$$$$V2.0 | 98.37
PEPTIDE1{[MalPEG5C4].R.G.A.D.R.A.G.G.G.G.R.G.D}$$$$V2.0 | 98.25
PEPTIDE1{[MalPEG5C5].R.G.A.D.R.A.G.G.G.G.R.G.D}$$$$V2.0 | 97.78
PEPTIDE1{[MalPEG5C6].R.G.A.D.R.A.G.G.G.G.R.G.D}$$$$V2.0 | 97.76
PEPTIDE1{[MalPEG5C7].R.G.A.D.R.A.G.G.G.G.R.G.D}$$$$V2.0 | 98.44
PEPTIDE1{[MalPEG6C1].R.G.A.D.R.A.G.G.G.G.R.G.D}$$$$V2.0 | 98.30
PEPTIDE1{[MalPEG6C2].R.G.A.D.R.A.G.G.G.G.R.G.D}$$$$V2.0 | 98.74
PEPTIDE1{[MalPEG6C3].R.G.A.D.R.A.G.G.G.G.R.G.D}$$$$V2.0 | 98.21
PEPTIDE1{[MalPEG6C4].R.G.A.D.R.A.G.G.G.G.R.G.D}$$$$V2.0 | 97.43
PEPTIDE1{[MalPEG6C5].R.G.A.D.R.A.G.G.G.G.R.G.D}$$$$V2.0 | 97.91
PEPTIDE1{[MalPEG6C6].R.G.A.D.R.A.G.G.G.G.R.G.D}$$$$V2.0 | 97.69
PEPTIDE1{[MalPEG6C7].R.G.A.D.R.A.G.G.G.G.R.G.D}$$$$V2.0 | 97.57
PEPTIDE1{[oMalPh(CH2)1CO].R.G.A.D.R.A.G.G.G.G.R.G.D}$$$$V2.0 | 97.56
PEPTIDE1{[oMalPh(CH2)2CO].R.G.A.D.R.A.G.G.G.G.R.G.D}$$$$V2.0 | 97.94
PEPTIDE1{[oMalPh(CH2)3CO].R.G.A.D.R.A.G.G.G.G.R.G.D}$$$$V2.0 | 98.07
PEPTIDE1{[oMalPh(CH2)4CO].R.G.A.D.R.A.G.G.G.G.R.G.D}$$$$V2.0 | 97.85
